Measurements: PubChem BioAssay AID493014 (National Center for Advancing Translational Sciences (NCATS), 2011)
Out of some 340,000 compounds screened, about 170 (0.05%) were called active. Inconclusive means that the source gave no clear call. Such entries were picked first, then a sample of the others. Calls come from the whole dose curve; as a rule, active = well fitted inhibition curve with a large enough effect in the signal ratio, with a control signal flat (not every such curve was filed as active); inconclusive = small, poorly fitted or top-dose-only effect, or effect the other way, or a change in a side signal; inactive = flat fitted curve, though single readings scatter; the % refers to the signal ratio. Where the call is inconclusive, the potency comes from a doubtful curve fit.

assay: qHTS Assay to Find Inhibitors of Chronic Active B-Cell Receptor Signaling; conditions: ABC-DLBCL IkBa-CBG/CBR reporter, luminescence ratio (green luciferase fused to IkBa over red control in TMD8 lymphoma cells), 4 h; activity change, negative = inhibition: at 46.1 µM (top of the series);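 for activity change, negative = inhibition: plate controls were basal doxycycline-induced cells for no effect and cells given 10 µM MG132 for full effect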
How it was run: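 Cell line TMD8 (human ABC DLBCL), stably expressing tet-inducible CBG68-IkBa fusion and CBR; IMDM/0.5% FBS; cpd up to 46 uM; dox induction, 4 h, 37C/5% CO2; dual luminescence; green/red ratio; MG132 control.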
Potency is the fitted concentration of half-maximal effect.

Row | SMILES | activity change, negative = inhibition | Potency
1 | CC1=CC2=NC(=O)/C(=C\c3cccn3CCOc3ccc(C)c(C)c3)C(=N)N2O1 | inactive: -6.65% | 
2 | Cc1ccc(NC(=O)CSc2nc3c(c(=O)[nH]2)CN(Cc2ccc(F)cc2)CC3)cc1C | inactive: 10.7% | 
3 | COc1ccccc1C1=NC(c2ccc(F)cc2)N=C1C (centres undefined) |  | inconclusive: 22.4 µM [falling, single point]
4 | Cc1cc(C)c2nc(SCC(=O)Nc3ccc(S(=O)(=O)N4CCCC4)cc3)c(C)cc2c1 | inconclusive: -3.61% | 
5 | Cc1cc(C)c2nc(N3CCC(C(=O)NCCCN4CCCCC4)CC3)sc2c1 | inconclusive: -1.57% | 
6 | S=c1[nH]nc(-c2cc(-c3ccccc3)n[nH]2)n1/N=C/c1ccc(Cl)cc1 | inconclusive: 0.0112% | 
7 | Clc1cccc(-c2ccc3ncnc(NCc4cccs4)c3c2)c1 | inconclusive: -5.17% | 
8 | COc1cc(OC)cc(-c2sc3ccc(OC)cc3c2-c2ccc(OCCN3CCOCC3)cc2)c1 |  | inconclusive: 20.6 µM [falling, partial curve, poor fit]
9 | O=C(O)C1=C[C@H](c2cccs2)C[C@H](OCc2ccc(CO)cc2)O1 |  | inconclusive: 12.6 µM [falling, partial curve]
10 | CCOC(=O)C1=C(C)NC(=O)CC1c1ccccc1OC (centres undefined) |  | inconclusive: 3.16 µM [falling, single point]
11 | Nn1c(Cc2cccc3ccccc23)nnc1SCCOc1ccc(F)cc1 | inactive: 2.34% | 
12 | CCN(CC)CCC(c1ccc(N(C)C)cc1)c1c(OC)cc(OC)c2c(-c3ccccc3)cc(=O)oc12 (centres undefined) | inactive: -8.53% | 
13 | c1ccc2c(c1)c1ccccc1n2CN1CCOCC1 |  | inconclusive: 32.6 µM [falling, single point]
14 | O=C(COc1ccc2ccccc2c1)N1CCN(C(=O)c2ccco2)CC1 |  | inconclusive: 14.1 µM [falling, partial curve, poor fit]
15 | Cc1cnccc1CN(C)Cc1cn(C)nc1-c1cccc(Cl)c1 |  | inconclusive: 17.8 µM [falling, single point]
16 | CCCN1CCN(CCCNC(=O)c2cc3c(=O)n(C)c4ccccc4c3n2C)CC1 |  | inconclusive: 16.4 µM [falling, partial curve, poor fit]
17 | Cc1ccc(OCn2c(=O)sc3ccccc32)cc1 |  | inconclusive: 6.51 µM [rising, partial curve, poor fit]
18 | C/C(=N\NC(=O)c1cc(C)oc1C)c1ccc(N2CCOCC2)cc1 |  | inconclusive: 25.1 µM [rising, single point]
19 | CC(C)(c1cc(Br)c(O)c(Br)c1)c1cc(Br)c(O)c(Br)c1 | inconclusive: -2.02% | 
20 | O=C(OCn1ncc(Cl)c(Cl)c1=O)c1ccc(C(F)(F)F)cc1 | inactive: 0.981% | 

Compounds from the list above with a furan ring, fused or not, in the order listed:
Row | SMILES | activity change, negative = inhibition | Potency
14 | O=C(COc1ccc2ccccc2c1)N1CCN(C(=O)c2ccco2)CC1 |  | inconclusive: 14.1 µM [falling, partial curve, poor fit]
18 | C/C(=N\NC(=O)c1cc(C)oc1C)c1ccc(N2CCOCC2)cc1 |  | inconclusive: 25.1 µM [rising, single point]

(continued)

Row | SMILES | activity change, negative = inhibition | Potency
21 | C/C(=N\NC(=S)NCc1ccccc1)c1ccco1 | inactive: 0.852% | 
22 | CCOC(=O)c1ccc(-c2nnc(-c3ccc(Cl)cc3Cl)o2)cc1 | inactive: -8.86% | 
23 | CN1C[C@@H]2C(c3ccc(C(F)(F)F)cc3)C3(c4ccc(C#N)cc4)CC2(C3)[C@H]1c1ccccc1 (some centres undefined) | inactive: 7.53% | 
24 | COC(=O)CSc1nnc(-c2c[nH]c3ccccc23)o1 |  | inconclusive: 35.5 µM [falling, single point]
25 | CCn1c(CNc2ccc(OC)cc2)nnc1SCC(=O)c1ccc(OC)cc1 |  | inconclusive: 20.6 µM [falling, partial curve, poor fit]
26 | Cc1cc(N2CCN(C)CC2)nc2ccc(NC(=S)N3CCN(c4ccccn4)CC3)cc12 | inconclusive: 0.673% | 
27 | COc1cccc(CNC(=O)C2CCN(Cc3cc4ccccc4n3Cc3ccc(C)cc3)CC2)c1 | inactive: 4.38% | 
28 | CC(=O)c1cc(NC(=O)c2ccccc2)c(=O)oc1C | inactive: 2.76% | 
29 | COC(=O)c1cn(Cc2ccccn2)c(=O)c2ccccc12 | inconclusive: -15.2% | 
30 | NS(=O)(=O)c1ccc(NC(=O)COC(=O)Cn2cnc3ccccc3c2=O)cc1 | inactive: 0.66% | 
31 | Cc1cccc(N2C(=O)C(Cc3ccccc3)NC2=S)c1 (centres undefined) | inconclusive: 12.7% | 
32 | CC1=NN(c2ccccc2)C(=O)/C1=C\c1cc(C)n(C)c1C | inconclusive: 19.9% | 
33 | COc1ccc(-c2nc(CS(=O)(=O)CC(=O)NCCc3cc(OC)ccc3OC)c(C)o2)cc1 | inactive: 3.31% | 
34 | CCOc1ccc(CNC(=O)Cn2ccc3cc(S(=O)(=O)N4CCCCCC4)ccc32)cc1 | inactive: 0.329% | 
35 | COc1ccc(OCc2cccc(C(=O)Nn3cc([N+](=O)[O-])cn3)c2)cc1 |  | inconclusive: 25.9 µM [falling, single point]
36 | CCNC(=O)/C(C#N)=C/c1c(N2CCCCCC2)nc2c(C)cccn2c1=O | inconclusive: 3.25% | 
37 | CCNC(=S)NN=C1c2ccccc2-c2ccccc21 |  | inconclusive: 5.62 µM [cytotoxic, single point]
38 | CC(CCc1ccccc1)NS(=O)(=O)c1ccccc1 (centres undefined) | inconclusive: 10.6% | 
39 | COc1ccc(C(=O)NC(=S)Nc2ccc(N3CCOCC3)cc2)cc1Cl |  | inconclusive: 17.8 µM [falling, single point]
